Measurements reported in PubChem BioAssay AID504744 (Drosophila RNAi Screening Center, 2011)
Screen: 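Identify dsRNAs that increase or decrease phospho-dAkt after insulin treatment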 (primary screen). Cell system: Drosophila Kc167 cells. Reagent: long dsRNA against Drosophila genes, 250 ng dsRNA per well of a 384-well plate. Time to read-out: 3 days of knock-down, then overnight serum-free starvation before stimulation. Conditions: bovine insulin at 387 nM for 10 minutes after 12 h without serum. Measurement: 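Per-well phospho-dAkt level from an in-cell fluorescent antibody stain, divided by a DNA-dye signal; log2 residuals turned into z-scores that take cell number into account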. Rule for the call: 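Under insulin, a gene counts as a hit if the average z-score of two replicates lies above 2.5 or below -2.5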.
In all, the deposit lists about 23,000 reagents; this is an unselected part of those with a known target gene and a result. Over the whole deposit, 98 (0.43%) got an active call. 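Only hit calls are given; the phospho-dAkt signals, z-scores and hit direction were not deposited.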 Names joined by + are all predicted targets of the reagent.

no.	Gene	DRSC id	Outcome
1	Clk	DRSC11117	inactive
2	Proc-R	DRSC18410	inactive
3	CG5687	DRSC08568	inactive
4	CG32266	DRSC08062	inactive
5	CG2104	DRSC12304	inactive
6	Itpr	DRSC12354	inactive
7	Nf-YC	DRSC18272	inactive
8	Clp	DRSC00746	inactive
9	CG15739	DRSC19705	inactive
10	CG14759	DRSC06494	inactive
11	CG17321	DRSC02598	inactive
12	CAH8	DRSC15784	inactive
13	scaf	DRSC04849	inactive
14	Smyd5	DRSC15483	inactive
15	CCKLR-17D1	DRSC20010	inactive
16	CCKLR-17D1	DRSC20011	inactive
17	CCKLR-17D1	DRSC20012	inactive
18	CG11226	DRSC11639	inactive
19	IntS1	DRSC04343	inactive
20	CG2321	DRSC15439	inactive
21	Fife	DRSC08262	inactive
22	CG11279	DRSC09837	inactive
23	Gld	DRSC12595	inactive
24	CG34334	DRSC20643	inactive
25	mts	DRSC03574	active
26	pcs	DRSC07042	inactive
27	unpg	DRSC07713	inactive
28	CG2004	DRSC18200	inactive
29	CG30161	DRSC22141	inactive
30	Npc2b	DRSC15464	inactive
31	Cpr64Ac	DRSC08462	inactive
32	CG4363	DRSC04465	inactive
33	CAH4	DRSC22433	inactive
34	Gr59d	DRSC22553	inactive
35	CG13930	DRSC08399	inactive
36	Sara	DRSC04653	inactive
37	Ptx1	DRSC16804	inactive
38	xmas-1 (retired record)	DRSC20386	inactive
39	Or45a	DRSC07487	inactive
40	Nepl10	DRSC07212	inactive
41	CG5001	DRSC00673	inactive
42	SPE	DRSC15135	inactive
43	CG13723	DRSC10052	inactive
44	Cdc16	DRSC16920	inactive
45	muc	DRSC02832	inactive
46	muc	DRSC21940	inactive
47	Cyp28d1	DRSC03298	inactive
48	Cyp28d1	DRSC21331	inactive
49	CG8774	DRSC16445	inactive
50	Taf13	DRSC02106	inactive
51	sty	DRSC08737	inactive
52	CG10916	DRSC06012	inactive
53	CG14104	DRSC10106	inactive
54	CD98hc	DRSC15453	inactive
55	CG17928	DRSC02644	inactive
56	Zmynd10	DRSC09826	inactive
57	kek4	DRSC03220	inactive
58	CG31464	DRSC14345	inactive
59	Csp	DRSC11860	inactive
60	CG2291	DRSC06836	inactive
61	CG34268	DRSC07874	inactive
62	CG9698	DRSC16539	inactive
63	CG4645	DRSC19907	inactive
64	CG11060	DRSC06029	inactive
65	htt	DRSC16970	inactive
66	eIF4A	DRSC03526	active
67	CG12910	DRSC06225	inactive
68	Ugt50B3	DRSC04778	inactive
69	Ugt50B3	DRSC04779	inactive
70	Ugt50B3	DRSC21419	inactive
71	esc	DRSC03529	inactive
72	CG43996	DRSC19456	inactive
73	CG43996	DRSC19457	inactive
74	CG7213	DRSC10787	inactive
75	Acp26Ab	DRSC01856	inactive
76	CG33679	DRSC01436	inactive
77	CG11068	DRSC19369	inactive
78	lft	DRSC02236	inactive
79	coro	DRSC05007	inactive
80	coro	DRSC21417	inactive
81	CG12849	DRSC04129	inactive
82	Claspin	DRSC08308	inactive
83	Rrp47	DRSC20124	inactive
84	CG32189	DRSC09511	inactive
85	TwdlZ	DRSC19154	inactive
86	Hap40	DRSC20085	inactive
87	FIG4	DRSC00515	inactive
88	CG8132	DRSC16383	inactive
89	CG13531	DRSC04173	inactive
90	CG33791 + CG12105 + CG18170	DRSC08387	inactive
91	Gr23a	DRSC00410	inactive
92	CG14712	DRSC14935	inactive
93	CG42268	DRSC10171	inactive
94	CG42268	DRSC10702	inactive
95	CG42268	DRSC21797	inactive
96	CG6923	DRSC16136	inactive
97	CR14798	DRSC17956	inactive
98	CG11191	DRSC06056	inactive
99	CG14005	DRSC02337	inactive
100	CG1428	DRSC03708	inactive
101	bsf	DRSC02035	inactive
102	Akh	DRSC08138	inactive
103	CG33465	DRSC05587	inactive
104	CG5731	DRSC02883	inactive
105	CG8778	DRSC07264	inactive
106	Clbn	DRSC14404	inactive
107	CG3803	DRSC04420	inactive
108	RabX6	DRSC08223	inactive
109	fz	DRSC11348	inactive
110	CG2577	DRSC19863	inactive
111	Nepl17	DRSC14880	inactive
112	CG30075	DRSC05484	inactive
113	CG15543	DRSC15081	inactive
114	CR41501	DRSC07785	inactive
115	CG31908	DRSC21864	inactive
116	CG42502 + CG10570	DRSC02071	inactive
117	ND-42	DRSC16754	inactive
118	Blos3	DRSC09573	inactive
119	Snmp1	DRSC16168	inactive
120	Ldaf1	DRSC17963	inactive
121	CG4119	DRSC17741	inactive
122	para	DRSC19141	inactive
123	para	DRSC20360	inactive
124	Svil	DRSC07981	inactive
125	Svil	DRSC08296	inactive
126	Svil	DRSC08332	inactive
127	Svil	DRSC08333	inactive
128	Svil	DRSC08494	inactive
129	nesd	DRSC02099	inactive
130	CG14893	DRSC15015	inactive
131	ATPsynCF6L	DRSC08232	inactive
132	Cyp4d8	DRSC11131	inactive
133	CG31705	DRSC01991	inactive
134	snsl	DRSC00543	inactive
135	Ugt36E1	DRSC02599	inactive
136	CG32855	DRSC13131	inactive
137	Nup44A	DRSC07248	inactive
138	CG5160	DRSC02821	inactive
139	COX2 (retired record)	DRSC21276	inactive
140	Mrgn1	DRSC20223	inactive
141	CG14095	DRSC10098	inactive
142	Ubc6	DRSC12370	inactive
143	Or65b	DRSC08809	inactive
144	Tango5	DRSC18023	inactive
145	tbrd-1	DRSC14601	inactive
146	CG11588	DRSC09145	inactive
147	CG11588	DRSC09846	inactive
148	G6P	DRSC00414	inactive
149	TMEM216 + CG11760	DRSC14375	inactive
150	CG32320	DRSC21514	inactive
151	Charon	DRSC00679	inactive
152	CG4617	DRSC18377	inactive
153	Hexim	DRSC15490	inactive
154	SdhC	DRSC16088	inactive
155	CG32576 + UQCR-14	DRSC19870	inactive
156	CG10147	DRSC09706	inactive
157	Sox15	DRSC07555	inactive
158	dj-1beta	DRSC14599	inactive
159	FMRFaR	DRSC08555	inactive
160	Mcm3	DRSC18679	inactive
161	Mpcp2	DRSC11226	inactive
162	CG8180	DRSC07092	inactive
163	CG8180	DRSC07093	inactive
164	CG4789	DRSC19918	inactive
165	GlcT	DRSC04525	inactive
166	CG18810	DRSC02701	inactive
167	CG33635	DRSC00006	inactive
168	beat-IV	DRSC14195	inactive
169	beat-IV	DRSC14673	inactive
170	Ostgamma	DRSC03074	inactive
171	h-cup + Rbp	DRSC14990	inactive
172	CR31958	DRSC00282	inactive
173	CR31958	DRSC21858	inactive
174	Rrp45	DRSC20198	inactive
175	nero	DRSC15432	inactive
176	CG5708	DRSC02881	inactive
177	CG13074	DRSC09957	inactive
178	Alg7	DRSC02833	inactive
179	Alg7	DRSC02834	inactive
180	CG8679	DRSC03109	inactive
181	mRpS5	DRSC21380	inactive
182	Irbp	DRSC17007	inactive
183	Achl	DRSC06665	inactive
184	CG4151	DRSC18351	inactive
185	CG6028	DRSC15951	inactive
186	CG32820 + CG17450 + CG32819	DRSC21803	inactive
187	CG32820 + CG17450 + CG32819	DRSC22812	inactive
188	CG43773	DRSC00287	inactive
189	CG43773	DRSC00288	inactive
190	Prip	DRSC07044	inactive
191	CG17191	DRSC15185	inactive
192	gogo	DRSC10070	inactive
193	gogo	DRSC10071	inactive
194	Ccdc58 + CG34116	DRSC10105	inactive
195	CG32267	DRSC21561	inactive
196	CG3226	DRSC18296	inactive
197	ACOX1	DRSC05941	inactive
198	Grl62c	DRSC07964	inactive
199	ND-18	DRSC19441	inactive
200	slmb	DRSC17056	inactive

Targets listed so far whose gene name starts with H or h (4):
Gene	DRSC id	Outcome
htt	DRSC16970	inactive
Hap40	DRSC20085	inactive
Hexim	DRSC15490	inactive
h-cup + Rbp	DRSC14990	inactive
